Reference: PMC5646864
These are yes or no findings as the source states them, for the method shown. Some entries that bind do so weakly or less than the wild type.

T1: Escherichia coli CsdE (Escherichia coli), P0AGF2
T1 chain: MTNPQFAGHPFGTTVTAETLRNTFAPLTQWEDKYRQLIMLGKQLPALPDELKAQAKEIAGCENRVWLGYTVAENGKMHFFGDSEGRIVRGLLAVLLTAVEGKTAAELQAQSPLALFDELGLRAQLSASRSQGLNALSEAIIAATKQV


How the values were obtained:
[1] = target: T1, Escherichia coli CsdE (Escherichia …); assay: crystal structure; native CsdE at 40 mg/ml in 10 mM Tris-HCl pH 8, 2 mM 2-mercaptoethanol; crystallised in 0.1 M sodium citrate pH 6.5, 20% (w/v) PEG-MME 2000 at 297 K; two monomers in the asymmetric unit joined by a Cys61-Cys61 disulfide bridge; phased by Se-SAD on SeMet crystals; both purified; details: remark: other sources report otherwise
[2] = target: Escherichia coli CsdE (Escherichia coli) (UniProt P0AGF2); assay: condition: only with excess reducing agent in the protein stock; SEC; gel filtration of the CsdE protein stock with excess reducing agent; both purified

Row | binding [1] | binding [2] | Binder
1 | binds | – | Escherichia coli CsdE, P0AGF2 1-147 (natural protein) MTNPQFAGHPFGTTVTAETLRNTFAPLTQWEDKYRQLIMLGKQLPALPDELKAQAKEIAGCENRVWLGYTVAENGKMHFFGDSEGRIVRGLLAVLLTAVEGKTAAELQAQSPLALFDELGLRAQLSASRSQGLNALSEAIIAATKQV
2 | – | no binding | Escherichia coli CsdE (protein, UniProt P0AGF2 1-147) MTNPQFAGHPFGTTVTAETLRNTFAPLTQWEDKYRQLIMLGKQLPALPDELKAQAKEIAGCENRVWLGYTVAENGKMHFFGDSEGRIVRGLLAVLLTAVEGKTAAELQAQSPLALFDELGLRAQLSASRSQGLNALSEAIIAATKQV
